Source: paper PMC10163288
Some of the results follow.

B1: il2ra_site1_2b5i_normal_mot_HHH_b2_04910_000000118_0001_1_19_H_._HHH_b2_06803_af2_0001_0000100005_0000001_0_af2pred_dldesign_0_af2pred (protein)
chain: SSSSSSSKALELFLKANEAFQAGKYEEAKKLLEEALEEAKKNKENSILKMVESALKSLSSSSSSS
B2: il2ra_site1_1z92_normal_mot_922575b2e9738a49cb663a995786872c_0001_af2_000000234_0001_18_32_H_._ae2d1c0b5552e85e62693402b9c72bf7_0001_af2_0001_0000400024_0000001 … (protein)
chain: SRENEERIEEAIKKNDLELLKEHLRLLERLAGDPHLARQYLKLQIARLLGDPEEAEEIVEEIEKR
B3: il2ra_site1_1z92_sap_22_mot_HHH_b2_03816_af2_000000009_0001_40_54_H_._HHH_b1_06068_0001_0000300025_0000001_1_0001 (protein)
chain: DAVLRDLERTEKFFGNPENALKALVAALRDLGDPELQEIAEIIRELLERGVPPEEIKEIVKELVR
B4: il2ra_site2_3nfp_sap_26_mot_HHH_b1_03873_000000295_0001_37_55_H_._HHH_b2_02278_af2_0001_0000300022_0000001_0_0001_af2pred_0001_af2pred_1_swapped (protein)
chain: SSSSSHEELVKELRKELREAEEEGDEERLRQLAFLLIRLALELNDEELEELAKRLLHELWSSSSS
B5: il2ra_site1_3nfp_sap_17_mot_HHH_b1_06312_000000077_0001_1_18_H_._HHH_b1_02603_af2_0001_0000500014_0000001_0_0001_af2pred_0001_af2pred_1 (protein)
chain: SSSSDVEEFLEEIKEELREALEKGDARLAARIFKEASKKLREKGNPELAEELYEFLRKLISSSSS
B6: il2ra_site2_2erj_sap_21_mot_HHH_b2_01275_af2_000000073_0001_23_39_H_._HHH_b1_08366_af2_0001_0000500019_0000001_0_0001 (protein)
chain: SSSSNEELKKLYELLEEILRALHEGDEEKFEELLEELERLAEELDSENAKEIAEALRELGSSSSS
B7: il2ra_site2_3nfp_sap_18_mot_HHH_b1_04032_000000208_0001_43_56_H_._14fc6b67d8325dfdf4a09fbb2e7c13bb_0001_1_af2_0001_0000200004_0000001_1_0001 (protein)
chain: SSSSDVEEIAQELLEEAKELLERGNPREAAHVLAELATFLMRRNNRELLKEVNQLAYEILNSSSS
B8: il2ra_site2_3nfp_normal_mot_HHH_b1_00660_af2_000000090_0001_40_57_H_._HHH_b2_04195_0001_0000100015_0000001_0_af2pred_0001_1_af2pred_swapped (protein)
chain: SSSSSEEEEVRELLEQAKELLERGNPEEAEEILRRAADLAYEANNFELFAIISELLEKVDQSSSS
B9: il2ra_site2_3nfp_normal_mot_HHH_b1_01086_af2_000000264_0001_39_53_H_._HHH_b1_02927_0001_0000400028_0000001_0_af2pred_0001_1_af2pred_swapped (protein)
chain: SSSSSEEERLVKELLREAEEARENNDEELLAHLLAVAFSIALEINNEELQKEVEEVSQRLRSSSS
B10: il2ra_site1_2b5i_sap_16_mot_HHH_b2_07442_af2_000000069_0001_1_16_H_._HHH_b1_00444_0001_0000100001_0000001_0_0001_af2pred_dldesign_0_af2pred (protein)
chain: SSSSEDLRELTRELIAEARRLKDTDPLLAKKLARLALRLARKSGDEELVAEARAVLAELESSSSS
B11: il2ra_site2_2erj_normal_mot_6ec3e94b46d95805cdcdc10c0c108f03_0001_af2_000000040_0001_36_50_H_._HHH_b1_06242_af2_0001_0000300012_0000001_0 (protein)
chain: SSSSDELRELYELANEILHLLARGDPEQARELIEEARELAEELQSDNAKELLESLERLARSSSSS
B12: il2ra_site1_1z92_sap_28_mot_HHH_b1_01467_000000208_0001_22_39_H_._HHH_b1_01192_af2_0001_0000200006_0000001_0_0001_af2pred_0001_af2pred_1 (protein)
chain: DLEERIEELIEQIPNPQVRRLLELVLEELKEDERVALRDVRRLLEFFGDPIVEEIVELIEELVRR
B13: il2ra_site1_2b5i_normal_mot_HHH_b1_06833_000000178_0001_1_19_H_._HHH_b1_07373_af2_0001_0000100007_0000001_0 (protein)
chain: SSSSTEEKELVRFVLRLITRLRLSEEQARELAQLAAELLFEGVDEEEIEEILRKLAEELGSSSSS
B14: il2ra_site1_3nfp_sap_15_mot_5dea99290cf7e133ebc5b763b21a7a39_0001_000000141_0001_34_49_H_._f43df4b072a677831423678cc65c5d2a_0001_0001_0000500017_0000001_0_0001 (protein)
chain: SSSSSRAEELTEMAEQAAKMLGDEELERLLRELLEEAKEKGDKRVWQELWEVIFEVIQRSASSSS
B15: il2ra_site2_3nfp_normal_mot_aceb0566c4959a1d3b0eec5718b8dc8a_0001_af2_000000069_0001_34_48_H_._HHH_b2_03402_0001_0000100008_0000001_0_af2pred_0001_af2pred_swapp … (protein)
chain: SSSSDEEERRARFIFRYAEWLAEEQNDEETLERLRELAEEYEEKGDPRVLEEVLELARELSSSSS
B16: il2ra_site2_3nfp_normal_mot_HHH_b1_00660_af2_000000090_0001_40_57_H_._HHH_b2_01829_0001_0000200031_0000001_0_af2pred_0001_af2pred (protein)
chain: SSSSSDEEREEVEELLEEAKHIEDDEERERLLRRAALIAVEANDFELFALVTLVMEELENSSSSS
B17: il2ra_site1_1z92_sap_19_mot_HHH_b2_06948_000000036_0001_19_35_H_._0c3f1ad226cb76d7bcdd6a902dc11329_0001_1_af2_0001_0000100016_0000001_0_0001_af2pred_0001_af2pre … (protein)
chain: SVEEFLRELAKRNPELFERFVERSLKAEGVPPEEIEEILEEIRELLKRDPEQAVELALELLHRAS
B18: il2ra_site1_3nfp_normal_mot_HHH_b1_03420_af2_000000029_0001_41_57_H_._97e99672e168623ff83a69b38e8865de_0001_1_0001_0000300022_0000001_0_af2pred_0001_af2pred_1 (protein)
chain: SSEELLKEMVEFAVRRNNPKLLRRILEELERWLGDPEEAERVLKELIEEVLGDPEEAERLVEEAK
B19: il2ra_site2_3nfp_normal_mot_HHH_b1_07556_000000077_0001_42_55_H_._738ccc93aada9afe30a0d8950425dc90_0001_1_0001_0000100012_0000001_0_af2pred_0001_af2pred (protein)
chain: DVERELSRLARERNDPAVLRAKAIIRILKLRGVPPEEIEEIVEEIIKKAGLPPEIEELLREAVRE

The binders below were run against il2ra, P01589 (assay: yeast display titration).
In the case of B1, the “apparent Kd” value is reported as “inactive: no binding seen”. For B2, the “apparent Kd” value was “inactive: no binding seen”. With B3 the “apparent Kd” value was “inactive: no binding seen”. For B4, the “apparent Kd” value was “inactive: no binding seen”. B5 was tested, and the “apparent Kd” value was “inactive: no binding seen”. With B6 the “apparent Kd” value was “inactive: no binding seen”. With B7 the “apparent Kd” value was “inactive: no binding seen”. B8 was tested, and the “apparent Kd” value was “inactive: no binding seen”. With B9 the “apparent Kd” value was “inactive: no binding seen”. With B10 the “apparent Kd” value was “inactive: no binding seen”. B11 was tested, and the “apparent Kd” value was “inactive: no binding seen”. For B12, the “apparent Kd” value was “inactive: no binding seen”. B13 was tested, and the “apparent Kd” value was “inactive: no binding seen”. With B14 the “apparent Kd” value was “inactive: no binding seen”. With B15 the “apparent Kd” value was “inactive: no binding seen”. For B16, the “apparent Kd” value was “inactive: no binding seen”. With B17 the “apparent Kd” value was “inactive: no binding seen”. With B18 the “apparent Kd” value was “inactive: no binding seen”. For B19, the “apparent Kd” value was “inactive: no binding seen”.
